Values from PubChem BioAssay AID1259405 (NCATS, 2018)

Assay: 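Mouse-designed siRNAs used to find CHO productivity engineering targets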 (primary screen)
Cells: Chinese hamster CHO-K1 ovary cells with stable secreted eGFP expression
Reagents: single siRNA against mouse genes, 0.8 pmol siRNA per well (2 µl of 400 nM stock)
Timing: 3 days
Read-out: 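Per-well intracellular GFP measured by laser scanning cytometry, plus viability from ATP luminescence, each relative to plate median of non-targeting control wells, in %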
Reading the numbers: GFP, % of control: higher = more GFP per well, higher productivity; viability (ATP), % of control: higher = more viable cells (more ATP)
Hit rule: 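Called active when intracellular GFP, relative to negative control, is at or above 120%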
The whole screen tested about 50,000 reagents; below is a random part of them. Of all reagents, about 4,000 (8%) were called active. 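Mouse siRNA library applied to hamster cells; one well for each siRNA.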 Unmarked entries are inactive. Reagents against one gene are numbered here.

Target gene | reagent | GFP, % of control | viability (ATP), % of control
Hoxb8 | 1 | 72.5 | 104
Hoxb8 | 2 | 86.1 | 69
Hoxb8 | 3 | 49.1 | 37.3
Stra6 | 1 | 72.5 | 72.7
Stra6 | 2 | 90.6 | 101
Stra6 | 3 | 99.4 | 71.9
Pdik1l | 1 | 69.1 | 85
Pcdhgb8 | 1 | 63 | 58.6
Pcdhgb8 | 2 | 35.7 | 48.5
Pcdhgb8 | 3 | 59.6 | 64.5
Fbxw17 | 1 | 101 | 101
Fbxw17 | 2 | 82.8 | 75.5
Fbxw17 | 3 | 105 | 96.8
Cldn19 | 1 | 123 (active) | 107
Cldn19 | 2 | 97.3 | 76.5
Cldn19 | 3 | 86.1 | 115
Aar2 | 1 | 106 | 122
Aar2 | 2 | 108 | 43.2
Aar2 | 3 | 112 | 69.7
H4c14 | 1 | 97.8 | 33.1
H4c14 | 2 | 90.5 | 110
H4c14 | 3 | 87.8 | 72.5
Ap3m2 | 1 | 73.5 | 75.6
Ap3m2 | 2 | 52.3 | 83.9
Ap3m2 | 3 | 108 | 77.9
Klrc1 | 1 | 101 | 113
Klrc1 | 2 | 115 | 78.3
Med15 | 1 | 83.4 | 77.6
Med15 | 2 | 89.6 | 51.2
Med15 | 3 | 104 | 138
Dhx8 | 1 | 68.1 | 66.2
Dhx8 | 2 | 93.8 | 98.2
Dhx8 | 3 | 97.1 | 120
Plbd1 | 1 | 98.8 | 71
Plbd1 | 2 | 99.9 | 100
Plbd1 | 3 | 72.7 | 53.7
Cspg4 | 1 | 79.1 | 67.1
Cspg4 | 2 | 58.5 | 87.8
Cspg4 | 3 | 110 | 95.1
Sec23ip | 1 | 109 | 106
Sec23ip | 2 | 80.7 | 77.3
Sec23ip | 3 | 92.7 | 106
Abcc2 | 1 | 121 (active) | 86.3
Abcc2 | 2 | 50 | 53.8
Abcc2 | 3 | 50.8 | 70.4
9530080O11Rik | 1 | 118 | 86
9530080O11Rik | 2 | 100 | 46.8
9530080O11Rik | 3 | 85.9 | 68.8
Svs4 | 1 | 74 | 61.4
Svs4 | 2 | 99.9 | 108
Svs4 | 3 | 145 (active) | 110
Spata6 | 1 | 73.1 | 71.5
Spata6 | 2 | 108 | 131
Spata6 | 3 | 143 (active) | 122
Sars1 | 1 | 93 | 104
Sars1 | 2 | 79.2 | 77.4
Sec23b | 1 | 104 | 70.3
Sec23b | 2 | 150 (active) | 85.9
Sec23b | 3 | 89.9 | 84.9
Chad | 1 | 47.2 | 31.7
Chad | 2 | 68 | 97.5
Chad | 3 | 69.8 | 43.6
Dnajc15 | 1 | 81.8 | 78
Dnajc15 | 2 | 54.1 | 43.3
Dnajc15 | 3 | 58.1 | 54
Med29 | 1 | 68.2 | 70.1
Med29 | 2 | 81.8 | 71.8
Med29 | 3 | 92.9 | 86.6
Lmbr1 | 1 | 113 | 94.4
Lmbr1 | 2 | 84.2 | 60.1
Lmbr1 | 3 | 65 | 79.8
Ccdc50 | 1 | 88.5 | 34.3
Ccdc50 | 2 | 39.9 | 56.6
Ccdc50 | 3 | 66.2 | 94.2
Ano2 | 1 | 47.2 | 50.5
Ano2 | 2 | 67.9 | 127
Ano2 | 3 | 0 | 194
Ndufv1 | 1 | 78.3 | 80.8
Ndufv1 | 2 | 64.4 | 36.9
Ndufv1 | 3 | 65.5 | 86.3
Pnpla2 | 1 | 91.7 | 75.3
Pnpla2 | 2 | 37.8 | 62.2
Pnpla2 | 3 | 52.9 | 52
Il22ra2 | 1 | 109 | 68.6
Il22ra2 | 2 | 119 | 74.4
Il22ra2 | 3 | 65.4 | 78.6
Zdhhc24 | 1 | 62.1 | 61.9
Zdhhc24 | 2 | 47.8 | 69
Zdhhc24 | 3 | 40.4 | 86.3
Mex3a | 1 | 55.6 | 60.1
Mex3a | 2 | 89.6 | 92.7
Mex3a | 3 | 95.5 | 70.1
Tfap2c | 1 | 56.8 | 52.9
Tfap2c | 2 | 61.3 | 58.7
Tfap2c | 3 | 66.9 | 82.1
Cxcl9 | 1 | 66.2 | 64.9
Cxcl9 | 2 | 64.4 | 79
Cxcl9 | 3 | 98.2 | 72.2
A830073O21Rik | 1 | 103 | 37.1
A830073O21Rik | 2 | 64.2 | 59.5
A830073O21Rik | 3 | 90.6 | 67.4
Klf9 | 1 | 53.5 | 60.2
Klf9 | 2 | 76 | 71.2
Mbd6 | 1 | 87.8 | 85
Mbd6 | 2 | 56.7 | 63.5
Mbd6 | 3 | 81.6 | 81.6
Spmip9 | 1 | 83.9 | 98.9
Spmip9 | 2 | 46.2 | 67.4
Spmip9 | 3 | 104 | 75.1
